Literature values as cited in patent US20210077514A1, “Nutraceutical Composition for Improving Overall Health” (priority 2019, published 2021).
At least one compound was matched to its structure with a doubt left.

Experiments:
[1] = STZ-induced diabetic model

In the case of `COc1cc(/C=C/c2ccc(O)cc2)cc(OC)c1` [pterostilbene], the “cell proliferation and apoptosis” value (breast cancer cells) is listed as “reduced cell proliferation and induced apoptosis”, the ROS-induced haemolysis (RBCs (red blood cells)) is listed as “protect RBCs (red blood cells) against ROS-induced haemolysis” and the glucose homeostasis [1] is listed as “maintains glucose homeostasis”.
